Test results published in PubChem BioAssay AID540276 (National Center for Advancing Translational Sciences (NCATS), 2011).
In all, about 300,000 compounds went through this assay and about 5,400 (1.8%) were called active. Inconclusive results, whose numbers are uncertain, are shown with a selection of clear calls. Calls come from the whole dose curve; tested in HEK293 cells. Where the call is inconclusive, the potency comes from a doubtful curve fit.

Test: qHTS for inhibitors of binding or entry into cells for Marburg Virus
Conditions: Marburg virus pseudotyped entry inhibition, cell reporter; activity change, negative = inhibition: at 37.8 µM (top of the series) unless noted
% is set by controls: 0 for no effect and ±100 for the full control effect; potency is the fitted concentration of half-maximal effect.

Compound | Potency | activity change, negative = inhibition
CC(C)c1ccc(N(C(=O)c2ccco2)C(C(=O)NC2CCCC2)c2cccnc2)cc1 (centres undefined) | inconclusive: 35.5 µM [inhibitor, single point] | –
CCCCn1c(SCC(=O)Nc2ccc3c(c2)OCO3)nc2c1c(=O)n(C)c(=O)n2C | inconclusive: 7.3 µM [inhibitor, partial curve] | –
Cc1ccc(CN=Cc2[nH]c3ccc(Br)c(Cl)c3c2O)cc1 | inconclusive: 20.6 µM [inhibitor, single point] | –
CCOC(=O)C(CC)Sc1nc2c(cnn2-c2ccc(F)cc2)c(=O)[nH]1 (centres undefined) | inconclusive: 6.31 µM [inhibitor, single point] | –
O=C(NCCc1cn2ccccc2n1)c1cc(COc2c(F)cccc2F)on1 | – | inactive: -8.01% [at 46.1 µM]
CC(=O)Nc1ccc(NC(=S)NC(=O)c2oc3ccccc3c2C)cc1 | inconclusive: 7.08 µM [activator, partial curve] | –
CC1(C)Cc2c(sc(NC(=O)c3ccc(Br)o3)c2C#N)CO1 | inconclusive: 0.291 µM [activator, full curve, poor fit] | –
CCOC(=O)c1ccccc1NC(=O)Cc1ccc(OC)c(S(=O)(=O)N2CCOCC2)c1 | inconclusive: 1 µM [activator, full curve, poor fit] | –
COc1ccc(/C=C/C(=O)NCCOc2ccccc2OC)cc1 | inconclusive: 0.562 µM [activator, full curve, poor fit] | –
CCc1cccc(C)c1Nc1c(-c2cccs2)nc2ncccn12 | – | inactive: -9.75% [at 46.1 µM]
CC(C)CNC(=O)CSc1nc(-c2cccs2)cc(C(F)(F)F)n1 | – | inactive: -26.2% [at 46.1 µM]
COc1ccc(C/C(N)=N/OC(=O)c2ccco2)cc1OC | inconclusive: 20 µM [inhibitor, single point] | –
Cc1ccccc1Cn1nnc2c1C(=O)c1ccccc1C2=O | inconclusive: 10 µM [inhibitor, partial curve, poor fit] | –
CCCCC1(CC(=O)OC)C(=O)N(c2ccccc2)N(c2ccccc2)C1=O | inconclusive: 0.112 µM [inhibitor, partial curve, poor fit] | –
CN(C)c1ccc(C(=S)NCc2ccco2)cc1 | inconclusive: 35.5 µM [inhibitor, single point] | –
Cc1nc2ccccc2n1/N=C/c1ccc([N+](=O)[O-])o1 | active: 14.6 µM | –
COc1ccc(-c2nc(CN3C(=O)CN=C(c4ccccc4)c4ccccc43)c(C)o2)cc1OC | – | inactive: -11.2% [at 46.1 µM]
O=C(NCc1ccco1)c1cc(-c2ccc(Cl)cc2)on1 | inconclusive: 25.9 µM [activator, single point] | –
Cc1cc(C)n(C(=O)CNC(=O)c2cccs2)n1 | inactive | –

Reformatted: results already given
Compound,Potency,"activity change, negative = inhibition"
O=C(NCCc1cn2ccccc2n1)c1cc(COc2c(F)cccc2F)on1,–,inactive: -8.01% [at 46.1 µM]
CC(=O)Nc1ccc(NC(=S)NC(=O)c2oc3ccccc3c2C)cc1,"inconclusive: 7.08 µM [activator, partial curve]",–
CC1(C)Cc2c(sc(NC(=O)c3ccc(Br)o3)c2C#N)CO1,"inconclusive: 0.291 µM [activator, full curve, poor fit]",–
CCOC(=O)c1ccccc1NC(=O)Cc1ccc(OC)c(S(=O)(=O)N2CCOCC2)c1,"inconclusive: 1 µM [activator, full curve, poor fit]",–
